Earlier results on one molecule are cited in patent publication US20260315500A1, “SOLID CANNABINOID COMPOSITION FOR PARENTERAL USE” (Bender Analytical Holding B.V., priority 2023, published 2026).

Converted amounts (≈) assume the structure as drawn.

`C=C(C)[C@@H]1CCC(C)=C[C@H]1c1c(O)cc(CCCCC)cc1O` [Cannabidiol]: the water solubility was 0.0627 µg/mL (≈ 0.199 µM).
